{"source": "paper PMC7594058", "binders": {"B1": {"name": "FLAG-tagged Smc6 (structural maintenance of chromosomes protein 6) (protein, UniProt Q96SB8 1-1091)", "chain": "MAKRKEENFSSPKNAKRPRQEELEDFDKDGDEDECKGTTLTAAEVGIIESIHLKNFMCHSMLGPFKFGSNVNFVVGNNGSGKSAVLTALIVGLGGRAVATNRGSSLKGFVKDGQNSADISITLRNRGDDAFKASVYGNSILIQQHISIDGSRSYKLKSATGSVVSTRKEELIAILDHFNIQVDNPVSVLTQEMSKQFLQSKNEGDKYKFFMKATQLEQMKEDYSYIMETKERTKEQIHQGEERLTELKRQCVEKEERFQSIAGLSTMKTNLESLKHEMAWAVVNEIEKQLNAIRDNIKIGEDRAARLDRKMEEQQVRLNEAEQKYKDIQDKLEKISEETNARAPECMALKADVVAKKRAYNEAEVLYNRSLNEYKALKKDDEQLCKRIEELKKSTDQSLEPERLERQKKISWLKERVKAFQNQENSVNQEIEQFQQAIEKDKEEHGKIKREELDVKHALSYNQRQLKELKDSKTDRLKRFGPNVPALLEAIDDAYRQGHFTYKPVGPLGACIHLRDPELALAIESCLKGLLQAYCCHNHADERVLQALMKRFYLPGTSRPPIIVSEFRNEIYDVRHRAAYHPDFPTVLTALEIDNAVVANSLIDMRGIETVLLIKNNSVARAVMQSQKPPKNCREAFTADGDQVFAGRYYSSENTRPKFLSRDVDSEISDLENEVENKTAQILNLQQHLSALEKDIKHNEELLKRCQLHYKELKMKIRKNISEIRELENIEEHQSVDIATLEDEAQENKSKMKMVEEHMEQQKENMEHLKSLKIEAENKYDAIKFKINQLSELADPLKDELNLADSEVDNQKRGKRHYEEKQKEHLDTLNKKKRELDMKEKELEEKMSQARQICPERIEVEKSASILDKEINRLRQKIQAEHASHGDREEIMRQYQEARETYLDLDSKVRTLKKFIKLLGEIMEHRFKTYQQFRRCLTLRCKLYFDNLLSQRAYCGKMNFDHKNETLSISVQPGEGNKAAFNDMRALSGGERSFSTVCFILSLWSIAESPFRCLDEFDVYMDMVNRRIAMDLILKMADSQRFRQFILLTPQSMSSLPSSKLIRILRMSDPERGQTTLPFRPVTQEEDDDQR"}}, "test_in_all_cases": "pull-down; only the target purified", "key": {"[1]": {"target": "GST-JCV LT-Ag (1–411) (JC virus (JCV)) (UniProt P03072)"}, "[2]": {"target": "GST-JCV LT-Ag (1–265) (JC virus (JCV)) (UniProt P03072)"}, "[3]": {"target": "GST-JCV LT-Ag (1–82) (JC virus (JCV)) (UniProt P03072)"}, "[4]": {"target": "T1, GST-JCV LT-Ag (aa 1–688, full-length) (JC virus (JCV)) (UniProt P03072)", "T1 sequence": "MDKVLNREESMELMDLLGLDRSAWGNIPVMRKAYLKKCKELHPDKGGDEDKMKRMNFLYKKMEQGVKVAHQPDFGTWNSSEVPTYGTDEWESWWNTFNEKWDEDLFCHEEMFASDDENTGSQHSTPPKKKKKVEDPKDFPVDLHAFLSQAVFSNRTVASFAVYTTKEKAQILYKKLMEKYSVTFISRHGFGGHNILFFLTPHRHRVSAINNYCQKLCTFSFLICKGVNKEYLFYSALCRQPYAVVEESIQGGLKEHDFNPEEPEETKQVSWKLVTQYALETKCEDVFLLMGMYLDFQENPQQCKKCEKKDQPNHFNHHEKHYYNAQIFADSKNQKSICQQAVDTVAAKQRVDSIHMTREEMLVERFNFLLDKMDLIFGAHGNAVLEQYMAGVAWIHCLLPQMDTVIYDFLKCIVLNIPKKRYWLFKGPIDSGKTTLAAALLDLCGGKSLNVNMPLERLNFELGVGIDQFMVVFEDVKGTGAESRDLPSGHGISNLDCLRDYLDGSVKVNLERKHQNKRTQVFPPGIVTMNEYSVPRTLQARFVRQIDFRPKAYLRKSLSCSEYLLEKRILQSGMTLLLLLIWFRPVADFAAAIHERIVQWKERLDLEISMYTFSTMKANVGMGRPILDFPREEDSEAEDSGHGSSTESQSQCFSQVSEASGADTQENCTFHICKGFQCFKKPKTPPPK"}}, "note": "No constants are given. Whether binding was seen depends on the method and setting. In cells and extracts the contact can be indirect. Some entries that bind do so weakly or less than the wild type. Sequences can lack the tags named with a protein."}
{"binder": "B1", "values": [{"measurement": "binding", "setting": "[1]", "value": "binds"}, {"measurement": "binding", "setting": "[2]", "value": "binds"}, {"measurement": "binding", "setting": "[3]", "value": "no binding"}, {"measurement": "binding", "setting": "[4]", "value": "binds"}]}
